PubChem BioAssay AID1508597, Cure First | 2020
The whole screen tested about 2,100 reagents; this is a random part of them. 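Calls flag viability under 80% in either arm, not effects specific to rucaparib; the reference for percent is not stated.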 Reagent sequences are not shown. Not given: the 100% reference.

Test: 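Survival screen with siRNA in ovarian cancer cells derived from patients, with or without rucaparib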 (primary screen)
Cell system: human ovarian carcinoma lines grown from tumours: OCI-P5x (papillary serous) and OCI-C5x (clear cell)
Knock-down reagent: siRNA pool against human genes, 1.25 pmol siRNA per well
Time to read-out: 72 h or 96 h, depending on the cell culture
Treatment: rucaparib 20 µM (about IC30) or vehicle, present until read-out
Measured: 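ATP luminescence measured at 72 or 96 h according to the culture, then normalised and expressed as percent viability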
Scale: viability, normalised: higher = more viable cells remaining
Rule for the call: 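Active when normalised viability falls below 80 percent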
Calls: active = viability under 80%; inactive = viability 80% or more

viability, normalised (%)	activity call	gene symbol	rucaparib or vehicle	cell line	technical replicate
47.2	active	MDC1	Rucaparib	OCI-C5x (clear cell)	1
46.4	active	MDC1	Rucaparib	OCI-C5x (clear cell)	2
62.6	active	MDC1	Rucaparib	OCI-C5x (clear cell)	3
87.8	inactive	MDC1	Rucaparib	OCI-P5x (serous)	1
95.6	inactive	MDC1	Rucaparib	OCI-P5x (serous)	2
66.8	active	MDC1	Rucaparib	OCI-P5x (serous)	3
46.6	active	MDC1	Vehicle	OCI-C5x (clear cell)	1
51.5	active	MDC1	Vehicle	OCI-C5x (clear cell)	2
47.9	active	MDC1	Vehicle	OCI-C5x (clear cell)	3
87.2	inactive	MDC1	Vehicle	OCI-P5x (serous)	1
84.9	inactive	MDC1	Vehicle	OCI-P5x (serous)	2
66.9	active	MDC1	Vehicle	OCI-P5x (serous)	3
45.8	active	CTCF	Rucaparib	OCI-C5x (clear cell)	1
41.6	active	CTCF	Rucaparib	OCI-C5x (clear cell)	2
42.2	active	CTCF	Rucaparib	OCI-C5x (clear cell)	3
70.9	active	CTCF	Rucaparib	OCI-P5x (serous)	1
60.8	active	CTCF	Rucaparib	OCI-P5x (serous)	2
53.3	active	CTCF	Rucaparib	OCI-P5x (serous)	3
35.8	active	CTCF	Vehicle	OCI-C5x (clear cell)	1
37.1	active	CTCF	Vehicle	OCI-C5x (clear cell)	2
33	active	CTCF	Vehicle	OCI-C5x (clear cell)	3
55.6	active	CTCF	Vehicle	OCI-P5x (serous)	1
51.4	active	CTCF	Vehicle	OCI-P5x (serous)	2
55.9	active	CTCF	Vehicle	OCI-P5x (serous)	3
57.4	active	CHMP1A	Rucaparib	OCI-C5x (clear cell)	1
55	active	CHMP1A	Rucaparib	OCI-C5x (clear cell)	2
45.9	active	CHMP1A	Rucaparib	OCI-C5x (clear cell)	3
62.9	active	CHMP1A	Rucaparib	OCI-P5x (serous)	1
70	active	CHMP1A	Rucaparib	OCI-P5x (serous)	2
83	inactive	CHMP1A	Rucaparib	OCI-P5x (serous)	3
53.2	active	CHMP1A	Vehicle	OCI-C5x (clear cell)	1
50.6	active	CHMP1A	Vehicle	OCI-C5x (clear cell)	2
47.7	active	CHMP1A	Vehicle	OCI-C5x (clear cell)	3
73.1	active	CHMP1A	Vehicle	OCI-P5x (serous)	1
67.1	active	CHMP1A	Vehicle	OCI-P5x (serous)	2
83	inactive	CHMP1A	Vehicle	OCI-P5x (serous)	3
48.2	active	PGGT1B	Rucaparib	OCI-C5x (clear cell)	1
41.3	active	PGGT1B	Rucaparib	OCI-C5x (clear cell)	2
32.6	active	PGGT1B	Rucaparib	OCI-C5x (clear cell)	3
37.4	active	PGGT1B	Rucaparib	OCI-P5x (serous)	1
43.3	active	PGGT1B	Rucaparib	OCI-P5x (serous)	2
42.8	active	PGGT1B	Rucaparib	OCI-P5x (serous)	3
38.7	active	PGGT1B	Vehicle	OCI-C5x (clear cell)	1
39.9	active	PGGT1B	Vehicle	OCI-C5x (clear cell)	2
48.5	active	PGGT1B	Vehicle	OCI-C5x (clear cell)	3
53.1	active	PGGT1B	Vehicle	OCI-P5x (serous)	1
54.9	active	PGGT1B	Vehicle	OCI-P5x (serous)	2
57.3	active	PGGT1B	Vehicle	OCI-P5x (serous)	3

Continued; the last 10 above are carried over.
viability, normalised (%)	activity call	gene symbol	rucaparib or vehicle	cell line	technical replicate
32.6	active	PGGT1B	Rucaparib	OCI-C5x (clear cell)	3
37.4	active	PGGT1B	Rucaparib	OCI-P5x (serous)	1
43.3	active	PGGT1B	Rucaparib	OCI-P5x (serous)	2
42.8	active	PGGT1B	Rucaparib	OCI-P5x (serous)	3
38.7	active	PGGT1B	Vehicle	OCI-C5x (clear cell)	1
39.9	active	PGGT1B	Vehicle	OCI-C5x (clear cell)	2
48.5	active	PGGT1B	Vehicle	OCI-C5x (clear cell)	3
53.1	active	PGGT1B	Vehicle	OCI-P5x (serous)	1
54.9	active	PGGT1B	Vehicle	OCI-P5x (serous)	2
57.3	active	PGGT1B	Vehicle	OCI-P5x (serous)	3
42.1	active	LMTK1	Rucaparib	OCI-C5x (clear cell)	1
36.1	active	LMTK1	Rucaparib	OCI-C5x (clear cell)	2
42.6	active	LMTK1	Rucaparib	OCI-C5x (clear cell)	3
86.5	inactive	LMTK1	Rucaparib	OCI-P5x (serous)	1
97.6	inactive	LMTK1	Rucaparib	OCI-P5x (serous)	2
101	inactive	LMTK1	Rucaparib	OCI-P5x (serous)	3
83.2	inactive	LMTK1	Vehicle	OCI-C5x (clear cell)	1
50.9	active	LMTK1	Vehicle	OCI-C5x (clear cell)	2
41.7	active	LMTK1	Vehicle	OCI-C5x (clear cell)	3
71.9	active	LMTK1	Vehicle	OCI-P5x (serous)	1
78.7	active	LMTK1	Vehicle	OCI-P5x (serous)	2
75.6	active	LMTK1	Vehicle	OCI-P5x (serous)	3
58.8	active	TAF12	Rucaparib	OCI-C5x (clear cell)	1
33	active	TAF12	Rucaparib	OCI-C5x (clear cell)	2
36.6	active	TAF12	Rucaparib	OCI-C5x (clear cell)	3
51.9	active	TAF12	Rucaparib	OCI-P5x (serous)	1
43.3	active	TAF12	Rucaparib	OCI-P5x (serous)	2
40.6	active	TAF12	Rucaparib	OCI-P5x (serous)	3
39.2	active	TAF12	Vehicle	OCI-C5x (clear cell)	1
35.7	active	TAF12	Vehicle	OCI-C5x (clear cell)	2
51	active	TAF12	Vehicle	OCI-C5x (clear cell)	3
66	active	TAF12	Vehicle	OCI-P5x (serous)	1
74.4	active	TAF12	Vehicle	OCI-P5x (serous)	2
62.7	active	TAF12	Vehicle	OCI-P5x (serous)	3
45.3	active	TARBP2	Rucaparib	OCI-C5x (clear cell)	1
54.7	active	TARBP2	Rucaparib	OCI-C5x (clear cell)	2
38.3	active	TARBP2	Rucaparib	OCI-C5x (clear cell)	3
58.8	active	TARBP2	Rucaparib	OCI-P5x (serous)	1
54.9	active	TARBP2	Rucaparib	OCI-P5x (serous)	2
52.3	active	TARBP2	Rucaparib	OCI-P5x (serous)	3
43.5	active	TARBP2	Vehicle	OCI-C5x (clear cell)	1
47.1	active	TARBP2	Vehicle	OCI-C5x (clear cell)	2
53.5	active	TARBP2	Vehicle	OCI-C5x (clear cell)	3
81.6	inactive	TARBP2	Vehicle	OCI-P5x (serous)	1
92.8	inactive	TARBP2	Vehicle	OCI-P5x (serous)	2
88.9	inactive	TARBP2	Vehicle	OCI-P5x (serous)	3
